## Results from one PubChem assay

From PubChem BioAssay record AID1224904 (Broad Institute, 2016).

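293T-iDUX4 dual-reporter cells; luminescence of the tet-on Italica luciferase control is read after 24 h.
The test concentration is not given here.
Percent change in the Italica control signal; more negative values mean stronger inhibition, which points to nonspecific, tet-on or cytotoxic effects.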

Values are in %.
Common to all entries: measured here: Italica tet-on control reporter.
Part of the compounds only, not a random draw; the main read-out is not listed here.

{"smiles": "Cc1ccccc1S(=O)(=O)N(C)C[C@@H]1OCc2ccccc2-c2ccccc2C(=O)N([C@H](C)CO)C[C@@H]1C", "activity change (%)": "-8.708"}
{"smiles": "N#Cc1cccc(-c2ccc(C3[C@@H]4CN(C(=O)c5ccccn5)C[C@H]3N4)cc2)c1", "stereo": "stereo partly drawn", "activity change (%)": "-60.96"}
{"smiles": "O=C(C1CCOCC1)N1CC(=O)N2[C@H](CO)[C@@H](c3ccc(C#Cc4cccc(F)c4)cc3)[C@@H]2C1", "activity change (%)": "-12.32"}
{"smiles": "COc1ccc2c3c(n(C)c2c1)[C@H](CO)N(C(=O)Nc1ccc(F)cc1)CC31CCN(C(=O)Nc2ccc(F)cc2F)CC1", "activity change (%)": "-26.82"}
{"smiles": "O=C(C[C@H]1CC[C@@H]2[C@H](COC[C@H](O)CN2Cc2ccc(Oc3ccccc3)cc2)O1)N1CCCCC1", "activity change (%)": "-30.08"}
{"smiles": "CCCC#Cc1ccc([C@@H]2[C@H](CO)N3C(=O)CN(C(=O)Nc4ccccc4F)C[C@@H]23)cc1", "activity change (%)": "-29.08"}
{"smiles": "N#Cc1cccc(-c2ccc([C@H]3[C@@H](CO)N4CCCCN(Cc5ccccc5F)C[C@@H]34)cc2)c1", "activity change (%)": "-10.6"}
{"smiles": "COc1ccccc1NC(=O)N[C@H]1CC[C@@H](CC(=O)N2CCC(Cc3ccccc3)CC2)O[C@H]1CO", "activity change (%)": "-8.223"}
{"smiles": "O=C(Nc1ccccc1)[C@@H]1[C@@H](CO)[C@@H]2Cn3c(cccc3=O)[C@@H]2N1Cc1ccccc1Cl", "activity change (%)": "-11.98"}
{"smiles": "O=C(CC1CC1)N1CC(=O)N2[C@@H](CO)[C@@H](c3ccc(C#Cc4cccc(F)c4)cc3)[C@@H]2C1", "activity change (%)": "-10.03"}
{"smiles": "O=C(Nc1ccc(C(F)(F)F)cc1)Nc1ccc2c(c1)[C@H]1C[C@@H](CC(=O)N3CCc4ccccc4C3)O[C@@H](CO)[C@H]1O2", "activity change (%)": "-63.89"}
{"smiles": "O=C(C[C@H]1C[C@@H]2c3cc(NC(=O)Nc4ccccc4F)ccc3O[C@@H]2[C@@H](CO)O1)NCCc1ccccc1", "activity change (%)": "-11.68"}
{"smiles": "O=C(c1cccnc1)N1CC(=O)N2[C@H](CO)[C@H](c3ccc(C#CCC4CCCC4)cc3)[C@H]2C1", "activity change (%)": "-20.7"}
{"smiles": "O=C(Cc1ccccn1)N1CC(=O)N2[C@H](CO)[C@@H](c3ccc(C#CCC4CCCC4)cc3)[C@@H]2C1", "activity change (%)": "-8.495"}
{"smiles": "CO[C@H]1CN(C)C(=O)c2ccc(NC(=O)c3nc4ccccc4s3)cc2OC[C@H](C)N(Cc2cccnc2)C[C@@H]1C", "activity change (%)": "-4.538"}
{"smiles": "CCCNC(=O)N1CC2(CN(S(=O)(=O)c3cccc(OC)c3)C2)c2c(n(C)c3cc(OC)ccc23)[C@@H]1CO", "activity change (%)": "-47.48"}
{"smiles": "COc1ccc2c3c([nH]c2c1)[C@H](CO)N(Cc1ccccc1)CC31CN(S(C)(=O)=O)C1", "activity change (%)": "-2.819"}
{"smiles": "COc1ccc(C#Cc2ccc([C@@H]3[C@@H](CO)N4CCCCN(C(=O)Cc5ccccc5)C[C@H]34)cc2)cc1", "activity change (%)": "-39.49"}
{"smiles": "COc1ccc2c3c(n(C)c2c1)[C@H](CO)N(CC1CC1)CC31CCN(C(=O)c2ccccc2)CC1", "activity change (%)": "-6.872"}
{"smiles": "O=C(C[C@@H]1CC[C@@H]2[C@H](COC[C@H](O)CN2S(=O)(=O)c2ccc(Oc3ccccc3)cc2)O1)Nc1ccccc1", "activity change (%)": "-38.76"}
{"smiles": "O=C(C[C@@H]1CC[C@H]2[C@@H](COC[C@@H](O)CN2C(=O)Nc2ccc(Cl)c(Cl)c2)O1)NCc1ccc(Cl)c(Cl)c1", "activity change (%)": "-28.78"}
{"smiles": "O=C(c1ccc(F)cc1)N1CC(=O)N2[C@H](CO)[C@H](c3ccc(C#CCC4CCCC4)cc3)[C@H]2C1", "activity change (%)": "-1.104"}
{"smiles": "COc1ccccc1NC(=O)N[C@@H]1CC[C@H](CC(=O)N2CCC(Cc3ccccc3)CC2)O[C@H]1CO", "activity change (%)": "-14.59"}
{"smiles": "COc1ccccc1C(=O)Nc1ccc2c(c1)OC[C@@H](C)N(CC1CC1)C[C@H](C)[C@@H](OC)CN(C)C2=O", "activity change (%)": "-24.19"}
{"smiles": "OC[C@H]1[C@H](c2ccc(C#Cc3ccccc3)cc2)[C@H]2CN(Cc3cncnc3)CCCCN21", "activity change (%)": "-16.72"}
{"smiles": "O=C(N[C@H]1CC[C@H](CCn2cc(-c3ccccc3)nn2)O[C@H]1CO)c1ccccc1F", "activity change (%)": "-24.95"}
{"smiles": "COc1cccc(-c2ccc3c(c2)[C@@H]2[C@@H](CCN2Cc2ccccc2OC)[C@@H](CO)N3)c1", "activity change (%)": "-12.73"}
{"smiles": "O=C(c1ccc2c(c1)OCO2)N1CCCCN2[C@@H](CO)[C@@H](c3ccc(-c4ccccc4)cc3)[C@@H]2C1", "activity change (%)": "-15.93"}
{"smiles": "COc1ccc(NC(=O)N2CC(=O)N3[C@H](C2)[C@@H](c2ccc(-c4ccc(C)cc4)cc2)[C@@H]3CO)cc1", "activity change (%)": "-10.36"}
{"smiles": "COc1ccc2c3c([nH]c2c1)[C@@H](CO)N(Cc1ccccc1OC)CC31CN(C)C1", "activity change (%)": "-15.51"}
{"smiles": "N#Cc1cccc(-c2ccc([C@H]3[C@H]4CN(Cc5ccccc5F)CCCCN4[C@H]3CO)cc2)c1", "activity change (%)": "-6.137"}

Some entries from above, unchanged:

- O=C(C1CCOCC1)N1CC(=O)N2[C@H](CO)[C@@H](c3ccc(C#Cc4cccc(F)c4)cc3)[C@@H]2C1 | activity change -12.32%
- O=C(N[C@H]1CC[C@H](CCn2cc(-c3ccccc3)nn2)O[C@H]1CO)c1ccccc1F | activity change -24.95%